# Measurements: patent publication US5827737A, “In vitro activation of cytotoxic T cells” (The Scripps Research Institute, priority 1996, dated 1998)
# Not every detail of the peptide structures is certain; ends, links or a residue may be inferred. Where no end group is shown, it is not given here.
# Key:
# [1] = molecular target: T1, "empty" Class I K^b molecules (Mus musculus, UniProt P01901); test: Peptide binding assay: heat challenge of empty K^b in RMA-S lysate, Y3 immunoprecipitation; parameters: species or system murine
# T1 construct: endogenous in cells; host or cells: RMA-S cells cultured at 26° C., detergent lysate
# T1 sequence (P01901 22-369): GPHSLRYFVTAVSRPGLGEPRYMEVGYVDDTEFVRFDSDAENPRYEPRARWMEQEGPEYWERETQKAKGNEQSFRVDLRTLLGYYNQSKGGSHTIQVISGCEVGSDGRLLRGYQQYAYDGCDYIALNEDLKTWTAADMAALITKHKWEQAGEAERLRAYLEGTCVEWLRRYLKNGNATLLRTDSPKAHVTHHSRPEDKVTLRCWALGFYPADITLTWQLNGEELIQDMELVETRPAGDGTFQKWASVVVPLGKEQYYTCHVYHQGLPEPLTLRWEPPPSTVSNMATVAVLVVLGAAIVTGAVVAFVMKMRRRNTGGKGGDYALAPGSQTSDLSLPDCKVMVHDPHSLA
# T1 sequence (P01887 21-119 partner): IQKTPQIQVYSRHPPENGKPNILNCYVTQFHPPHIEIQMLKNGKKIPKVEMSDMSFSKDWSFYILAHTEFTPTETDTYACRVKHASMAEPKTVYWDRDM
# HLA B27 = test: Peptide-induced thermostabilization of surface Class I on Drosophila cells, W6/32 cytofluorimetry; assay type: cell-based, human
# D^b /β2 = molecular target: T2, D^b /β2 (Mus musculus, UniProt P01899); test: 30° C. temperature challenge of Drosophila cell lysates, immunoprecipitation, SDS-PAGE; assay type: binding, murine
# T2 sequence (P01899 25-362): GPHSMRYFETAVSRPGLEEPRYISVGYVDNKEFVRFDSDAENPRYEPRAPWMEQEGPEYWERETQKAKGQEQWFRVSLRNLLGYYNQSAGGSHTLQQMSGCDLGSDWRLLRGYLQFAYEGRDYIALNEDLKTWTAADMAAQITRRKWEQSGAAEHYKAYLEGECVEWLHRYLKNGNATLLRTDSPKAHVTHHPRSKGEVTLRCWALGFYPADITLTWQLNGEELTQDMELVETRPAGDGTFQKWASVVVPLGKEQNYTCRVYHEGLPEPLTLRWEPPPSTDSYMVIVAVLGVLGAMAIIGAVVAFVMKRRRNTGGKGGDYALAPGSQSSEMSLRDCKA
# T2 sequence (P01887 21-119 partner): T1 sequence (P01887 21-119 partner)
molecule,measurement,setting,value
SNENMETM,prevention of heat-induced dissociation of the K^b β 2M complex,[1],unable to prevent
FRIGCRHSR [HIV Vpr],thermostabilization of surface HLA B27,HLA B27,stabilizes B27
CC(C)[C@H](NC(=O)CNC(=O)[C@H](CO)NC(=O)[C@H](CO)NC(=O)[C@@H](N)CC(=O)O)C(=O)N[C@@H](CCC(=O)O)C(=O)N[C@@H](CC(N)=O)C(=O)N1CCC[C@H]1C(=O)NCC(=O)NCC(=O)N[C@@H](Cc1ccc(O)cc1)C(=O)N[C@@H](CS)C(=O)N[C@H](C(=O)N[C@@H](CCCCN)C(=O)O)[C@@H](C)O [LCMV GP2],stabilization of D^b /β2 to the temperature challenge,D^b /β2,increase in stability
